Results as given in PubChem BioAssay AID485314 (National Center for Advancing Translational Sciences (NCATS), 2010).
Among all 340,000 compounds or so, about 4,500 (1.3%) were called active. Inconclusive results, whose numbers are uncertain, are shown with a selection of clear calls. The call rests on the fitted dose curve; in most records, active means well fitted inhibition curve with a large enough effect; inconclusive means small, poorly fitted or top-dose-only effect, or another doubt; inactive means no such curve, though single readings can be large or run the other way. A potency beside an inconclusive call is a rough fit, not a confirmed value.

molecular target: DNA polymerase beta (Homo sapiens) (UniProt P06746); assay: qHTS Assay for Inhibitors of DNA Polymerase Beta; conditions: Pol beta primer extension/strand displacement, fluorescence kinetic; activity change, negative = inhibition: at 114 µM (top of the series)
Summary of the method: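 Preincubation: enzyme (10 nM) with compound, 15 min, RT. Reaction: substrate added to 50 nM final. Reads: 0 and 10 min. Analysis: normalized, Hill fit.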
On the % scale 0 is the no-effect control and ±100 the full control effect; potency means the concentration at half of the fitted maximal effect.

How did the Potency turn out when `N/C(=N\OC(=O)Cc1cccs1)c1ccc(Br)cc1` was run?
The Potency was inconclusive: 4.47 µM [inhibitor, full curve].

`Cc1ccc(-c2nnn(CC(=O)N3CCCc4ccccc43)n2)cc1` was tested. Which Potency did it give?
Its Potency is inconclusive: 39.8 µM [inhibitor, partial curve, poor fit].

`c1ccc(C2=Nn3c(nnc3-c3ccco3)SC2)cc1` was tested. Which Potency did it give?
The Potency was inconclusive: 89.1 µM [inhibitor, single point].

Which Potency does the source give for `Cc1cc(/C=C2\SC(=S)NC2=O)cc(C)c1O` here?
Its Potency is inconclusive: 14.1 µM [inhibitor, full curve, poor fit].

How did the Potency turn out when `O=C(NC1CCCc2ccccc21)C1CCN(c2nnc(-n3cccc3)s2)CC1` (stereo not drawn) was run?
The Potency was inconclusive: 17.8 µM [inhibitor, full curve].

How did the “activity change, negative = inhibition” value turn out when `CCCCC(=O)NC(=S)Nc1ccc(Cl)c(C(=O)O)c1` was run?
Its value is inactive: -0.287%.

How did the Potency turn out when `Cc1ccc(C)c(NC(=O)Cn2nc(C)c3ccccc3c2=O)c1` was run?
The Potency was inconclusive: 89.1 µM [inhibitor, single point].

`CC1CCN(c2c(NCC3CCC(C(=O)Nc4ccccn4)CC3)c(=O)c2=O)CC1` (stereo not drawn) was tested. Which Potency did it give?
The Potency was inconclusive: 100 µM [inhibitor, single point].

How did the Potency turn out when `COC(c1ccccc1)(c1ccccc1)C(Oc1nc(C)cc(C)n1)C(=O)O` (stereo not drawn) was run?
The Potency was inconclusive: 39.8 µM [inhibitor, single point].

Which “activity change, negative = inhibition” value does the source give for `CCCN1CCN(c2ncc3c(n2)CCN(Cc2ccc(OC)c(OC)c2OC)C3)CC1` here?
Its value is inactive: -1.13%.

With `COc1ccccc1-c1noc(-c2ccc(N(C)Cc3ccccc3)c([N+](=O)[O-])c2)n1` as the compound, how does the Potency read?
Its Potency is inconclusive: 28.2 µM [inhibitor, full curve].

`O=C(CC(c1ccco1)C1CCCCC1=O)c1ccco1` (stereo not drawn) was tested. Which Potency did it give?
Its Potency is inconclusive: 50.1 µM [inhibitor, partial curve].

With `COc1ccc(S(=O)(=O)NCc2ccccn2)cc1NC(=O)c1ccccc1F` as the compound, how does the Potency read?
Its Potency is inconclusive: 50.1 µM [inhibitor, single point].

How did the Potency turn out when `COc1ccc(OC)c(C(=O)c2ccc(Cl)cc2)c1` was run?
The Potency was inconclusive: 3.16 µM [inhibitor, full curve, poor fit].

Which Potency does the source give for `Cc1nc(N/N=C/c2ccc(O)cc2O)cc(N2CCOCC2)n1` here?
The Potency was inconclusive: 14.1 µM [inhibitor, full curve].

With `COc1ccc(Cl)cc1NC(=O)CN(c1cccc(C)c1C)S(C)(=O)=O` as the compound, how does the Potency read?
Its Potency is inconclusive: 0.141 µM [inhibitor, full curve, poor fit].

For `Cc1cc(=O)n2[nH]c(C)cc2n1`, which “activity change, negative = inhibition” value is on record?
The value was inactive: 27.5%.

With `Cc1csc(NC(=O)Cc2c[nH]c3ccccc23)n1` as the compound, how does the Potency read?
The Potency was inconclusive: 0.126 µM [inhibitor, full curve, poor fit].

`N#CCC(=O)N/N=C/c1coc2ccccc2c1=O` was tested. Which activity change, negative = inhibition did it give?
The activity change, negative = inhibition was inconclusive: -35.2% [inhibitor].

`CCc1ccc(S(=O)(=O)NCc2cccn2Cc2cccc(C)c2)cc1` was tested. Which Potency did it give?
Its Potency is inconclusive: 89.1 µM [inhibitor, single point].

How did the Potency turn out when `CCc1nc(N2CCN(S(C)(=O)=O)CC2)c2c3c(sc2n1)CCCC3` was run?
The Potency was inconclusive: 0.631 µM [inhibitor, full curve].

How did the Potency turn out when `Cn1c(NCc2ccco2)nc2c1c(=O)n(Cc1ccc(Cl)cc1)c(=O)n2C` was run?
The Potency was inconclusive: 17.8 µM [inhibitor, full curve, poor fit].

Which “activity change, negative = inhibition” value does the source give for `CCc1ccc(CNC(=O)CN2C(=O)CSc3ccc(S(=O)(=O)N4CCOCC4)cc32)cc1` here?
Its value is inactive: 34.5%.

`Clc1ccc(C[n+]2cc(-c3ccc(Cl)cc3)n3c2CCC3)cc1` was tested. Which Potency did it give?
The Potency was inconclusive: 89.1 µM [inhibitor, single point].

For `CC(C)N(Cc1cnn(C)c1)C(=O)c1ccc(OC2CCN(Cc3ccccn3)CC2)cc1`, which activity change, negative = inhibition is on record?
The activity change, negative = inhibition was inconclusive: -46.2% [inhibitor].

Which “activity change, negative = inhibition” value does the source give for `CCOC(=O)C1CCN(Cc2nnnn2CCc2ccccc2)CC1` here?
Its value is inactive: -18.5%.

How did the Potency turn out when `COc1ccc2cc3cc(C(=O)NCc4cccnc4)oc3nc2c1` was run?
Its Potency is inconclusive: 25.1 µM [inhibitor, partial curve, poor fit].

`Cc1ccc(-n2nc(C(=O)N3CCCCC3)c(=O)n(C)c2=O)cc1` was tested. Which Potency did it give?
Its Potency is inconclusive: 89.1 µM [inhibitor, single point].

Which Potency does the source give for `C=CCn1cc(/C=N/NC(=O)COc2cccc3cccnc23)c2ccccc21` here?
The Potency was inconclusive: 22.4 µM [inhibitor, full curve, poor fit].

How did the Potency turn out when `c1ccc(OCc2nnc3sc(-c4cccs4)nn23)cc1` was run?
The Potency was inconclusive: 89.1 µM [inhibitor, single point].

Which Potency does the source give for `COc1ccc2c(C)cc(SCC(=O)c3ccc4c(c3)OCO4)nc2c1` here?
The Potency was active: 50.1 µM.

For `CCOc1ccccc1C1C(C#N)=C(N)Oc2n[nH]c(CC)c21` (stereo not drawn), which “activity change, negative = inhibition” value is on record?
The value was inactive: 37.2%.

How did the Potency turn out when `COc1cccc(N=Nc2c(N)[nH]n3c(=O)cc(-c4ccccc4)nc23)c1` was run?
Its Potency is inconclusive: 15.8 µM [inhibitor, partial curve, poor fit].

For `C=C(C)CSc1nc2c(c(=O)[nH]c(=O)n2C)n1CCC(C)C`, which Potency is on record?
Its Potency is inconclusive: 12.6 µM [inhibitor, partial curve, poor fit].

For `CN1CCN(c2cc(=O)n(Cc3ccc(F)cc3)c(=O)[nH]2)CC1`, which “activity change, negative = inhibition” value is on record?
Its value is inactive: -12.7%.

`CCn1c(CNc2ccc(Cl)cc2)nnc1SCCN1CCCCC1` was tested. Which Potency did it give?
The Potency was inconclusive: 100 µM [inhibitor, single point].

For `CCc1ccc(NC(=O)Cc2c(C(=O)O)n(C)c3ccccc23)cc1`, which Potency is on record?
Its Potency is inconclusive: 39.8 µM [inhibitor, single point].

For `O=C(Cn1cc(C(F)(F)F)ccc1=O)Nc1ccc(N2CCOCC2)cc1`, which “activity change, negative = inhibition” value is on record?
Its value is inactive: -5.03%.

With `CC(=O)c1cccc(-n2nnnc2SCC(=O)Nc2ccccc2N2CCCCC2)c1` as the compound, how does the Potency read?
Its Potency is inconclusive: 22.4 µM [inhibitor, partial curve].

With `COc1ccc(Cn2c(SCc3ccc(C(=O)NC4CCCCC4)cc3)nc3cccnc32)cc1` as the compound, how does the Potency read?
The Potency was inconclusive: 63.1 µM [inhibitor, single point].

For `CC(=O)c1c2c3c(cccc3n(C)c1=O)C(=O)c1ccccc1-2`, which Potency is on record?
The Potency was inconclusive: 63.1 µM [inhibitor, single point].

`O=S(=O)(c1ccccc1F)N(Cc1ccco1)Cc1nnc(-c2ccccc2Br)o1` was tested. Which Potency did it give?
The Potency was inconclusive: 6.31 µM [inhibitor, full curve].

With `CCOc1ccccc1NC(=O)Cn1nc(-c2ccco2)ccc1=O` as the compound, how does the “activity change, negative = inhibition” value read?
Its value is inactive: -0.696%.

Which Potency does the source give for `O=C(CCS(=O)(=O)c1ccc(Br)cc1)NCCC1=CCCCC1` here?
The Potency was inconclusive: 79.4 µM [inhibitor, single point].

How did the Potency turn out when `NC(N)=Nc1cc2ccccc2c2ccccc12` was run?
The Potency was inconclusive: 35.5 µM [inhibitor, full curve].

Which Potency does the source give for `CCN(CC)C(=O)N1CCN(C(=O)N2CCOCC2)CC1` here?
Its Potency is inconclusive: 89.1 µM [inhibitor, single point].

How did the Potency turn out when `COC(=O)c1ccccc1NC(=O)c1cc2ccccn2n1` was run?
Its Potency is inconclusive: 12.6 µM [inhibitor, full curve, poor fit].

For `O=C(OCC(=O)N1CCN(Cc2ccccc2)CC1)c1ccc(Cl)cc1`, which Potency is on record?
The Potency was inconclusive: 22.4 µM [inhibitor, full curve, poor fit].

For `Cn1c(CNC(=O)c2ccccc2F)nnc1SCC(=O)c1ccccc1`, which “activity change, negative = inhibition” value is on record?
Its value is inactive: 0.389%.

For `CC(=O)Nc1sc(N)nc1-c1ccccc1`, which Potency is on record?
The Potency was inconclusive: 0.1 µM [inhibitor, full curve, poor fit].

Which Potency does the source give for `CN(C)c1ccc(C(=O)Nc2sc(Nc3ccccc3)nc2C(N)=O)cc1` here?
Its Potency is inconclusive: 89.1 µM [inhibitor, single point].

With `CCCc1cc(=O)[nH]c(SCC(=O)Nc2sc3c(c2C#N)CCC(C)C3)n1` (stereo not drawn) as the compound, how does the Potency read?
Its Potency is active: 17.8 µM.

How did the Potency turn out when `O=C(Nc1cccc(C(F)(F)F)c1)c1cc2c(=O)c3ccccc3oc2nc1C(F)(F)F` was run?
The Potency was inconclusive: 39.8 µM [inhibitor, partial curve].

How did the “activity change, negative = inhibition” value turn out when `Cc1c(Cl)cccc1NC(=O)c1cc(-c2cccc(Cl)c2)on1` was run?
Its value is inactive: 9.91%.

For `O=c1c(Cl)c(NCCCO)cnn1-c1nc2ccccc2[nH]1`, which “activity change, negative = inhibition” value is on record?
Its value is inactive: 2.45%.

Which “activity change, negative = inhibition” value does the source give for `O=C(CN1C(=O)c2cccnc2Oc2ccc(Cl)cc21)NCCCN1CCCCC1` here?
The value was inactive: 30.1%.

Which Potency does the source give for `Cc1nn2c(=O)cc(COC(=O)c3ccc(NC(=O)CCc4ccccc4)cc3)nc2s1` here?
Its Potency is active: 79.4 µM.

`CCOc1ccc(N(CC(=O)NCCSCc2ccccc2Cl)S(C)(=O)=O)cc1` was tested. Which Potency did it give?
The Potency was inconclusive: 15.8 µM [inhibitor, single point].

How did the Potency turn out when `C/C(=N/NC(=O)c1cc2ccccc2cc1O)C1C(=O)c2ccccc2C1=O` was run?
The Potency was inconclusive: 28.2 µM [inhibitor, full curve, poor fit].

Which Potency does the source give for `Cc1ccn2c(c1)nc(=O)c1cc(S(=O)(=O)N3CCCCC3)ccc12` here?
The Potency was inconclusive: 35.5 µM [inhibitor, single point].

For `O=C(c1ccccc1)c1c(O)cc(-c2ccccc2)oc1=O`, which Potency is on record?
The Potency was active: 15.8 µM.

`O=C(Nc1ccc(N2CCN(c3ccc(C(F)(F)F)cn3)CC2)nc1)c1cccs1` was tested. Which Potency did it give?
Its Potency is inconclusive: 5.01 µM [inhibitor, full curve, poor fit].

How did the Potency turn out when `N=C1C(c2nc3ccccc3c(=O)[nH]2)=C(O)CN1CCc1ccccc1` was run?
The Potency was inconclusive: 8.91 µM [inhibitor, full curve].

`CCOc1ccc(OCc2ccc(C(=O)Nc3cc(OC)c(OC)c(OC)c3)o2)cc1` was tested. Which Potency did it give?
Its Potency is inconclusive: 20 µM [inhibitor, partial curve].

Which Potency does the source give for `O=C(Nc1ccc2nc(-c3cccs3)[nH]c2c1)c1ccco1` here?
The Potency was active: 31.6 µM.

How did the Potency turn out when `CC(=O)N1c2ccc(S(=O)(=O)N3CCCCC3)cc2CC1C(=O)Nc1cccc(C)c1` (stereo not drawn) was run?
Its Potency is inconclusive: 3.55 µM [inhibitor, full curve, poor fit].
